In the test the target is HA-tagged human NHE1 with mutated ezrin binding site (AdMut) (human) (UniProt P19634). Kind of test: co-IP; anti-HA immunoprecipitation (HA-tagged NHE1 as bait) from lysates of rat PASMCs infected with AdNHE1 or AdMut; blots for p-ezrin and SMA; IgG as control.

Protein sequences, listed by entry. Tags and fused reporters are not part of them. Lines headed by an entry give the natural chain unless they say otherwise; changes in a name come on top.
UniProt P19634: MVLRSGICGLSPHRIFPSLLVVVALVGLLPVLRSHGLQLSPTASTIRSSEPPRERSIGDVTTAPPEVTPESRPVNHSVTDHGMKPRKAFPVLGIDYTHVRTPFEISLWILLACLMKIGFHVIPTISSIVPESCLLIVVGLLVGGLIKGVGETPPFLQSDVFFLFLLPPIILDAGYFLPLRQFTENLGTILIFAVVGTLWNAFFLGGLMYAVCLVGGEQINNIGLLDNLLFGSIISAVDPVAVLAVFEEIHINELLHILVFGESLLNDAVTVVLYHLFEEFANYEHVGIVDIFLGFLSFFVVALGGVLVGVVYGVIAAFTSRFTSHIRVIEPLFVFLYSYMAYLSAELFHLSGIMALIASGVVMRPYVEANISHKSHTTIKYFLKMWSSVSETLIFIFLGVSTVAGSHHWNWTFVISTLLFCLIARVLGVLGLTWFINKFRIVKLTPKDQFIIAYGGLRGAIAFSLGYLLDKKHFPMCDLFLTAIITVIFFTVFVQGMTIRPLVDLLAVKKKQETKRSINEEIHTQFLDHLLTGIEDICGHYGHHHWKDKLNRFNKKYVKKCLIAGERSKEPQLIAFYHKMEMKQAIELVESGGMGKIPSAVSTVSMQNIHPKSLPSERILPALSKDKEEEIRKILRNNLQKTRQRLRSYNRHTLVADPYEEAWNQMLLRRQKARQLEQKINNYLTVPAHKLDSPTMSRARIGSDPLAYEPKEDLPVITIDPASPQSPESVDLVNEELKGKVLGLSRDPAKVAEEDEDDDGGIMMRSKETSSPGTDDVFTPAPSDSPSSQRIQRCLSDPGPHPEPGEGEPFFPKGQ
UniProt P31977: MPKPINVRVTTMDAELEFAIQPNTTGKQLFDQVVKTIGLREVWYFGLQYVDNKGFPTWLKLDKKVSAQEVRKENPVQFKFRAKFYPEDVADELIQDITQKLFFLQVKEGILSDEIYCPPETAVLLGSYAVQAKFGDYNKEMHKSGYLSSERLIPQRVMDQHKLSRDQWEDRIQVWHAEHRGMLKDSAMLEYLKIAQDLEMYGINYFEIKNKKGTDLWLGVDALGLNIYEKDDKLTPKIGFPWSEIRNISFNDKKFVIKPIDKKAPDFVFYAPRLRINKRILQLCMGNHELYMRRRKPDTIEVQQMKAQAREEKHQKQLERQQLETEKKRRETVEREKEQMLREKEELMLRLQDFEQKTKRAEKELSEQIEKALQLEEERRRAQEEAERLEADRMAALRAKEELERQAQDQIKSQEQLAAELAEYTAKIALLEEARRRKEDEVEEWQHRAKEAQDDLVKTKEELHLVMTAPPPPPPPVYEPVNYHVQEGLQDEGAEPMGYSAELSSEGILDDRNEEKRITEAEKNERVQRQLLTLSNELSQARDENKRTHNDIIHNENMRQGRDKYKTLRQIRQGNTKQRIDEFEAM

These are yes or no findings as the source states them, for the method shown. In cells and extracts the contact can be indirect. A result given as binding can be weak or reduced; the word gives no strength.

With “phosphorylated ezrin (p-ezrin) (from UniProt P31977 1-586)”, the binding entry was “binds weakly”.

The values above are taken from paper PMC10011449.
